System: S. aureus CCUG 35601 (MRSA)
Test: Broth microdilution MIC/MBC
Format: cell-based
Settings: Staphylococcus aureus, 24 h
Protocol: The broth microdilution method was used to determine minimal inhibitory concentration (MIC) and minimal bactericidal concentration (MBC). Briefly, two-fold serial dilutions of the peptides were used and the final concentrations ranged between 0.097–50 µM. The final concentrations of the antibiotics vancomycin and teicoplanin ranged between 0.097–50 µg/ml, while rifampicin ranged between 0.0019–1 µg/ml and gentamicin 0.0097–5 µg/ml. The inhibitory and bactericidal effects of peptides together with antibiotics were studied by using the same concentration series of antibiotics with constant, sub-MIC concentrations, of the peptides in all the wells (see figure legends). […] MBC was determined as the lowest concentration where no growth of bacterial colonies (10 µl) was observed on blood-agar plates. All experiments were repeated at least three times. The combined effect of teicoplanin and PLNC8 αβ against S. epidermidis ATCC 12228 was evaluated by the microdilution checkerboard method. Briefly, two-fold serial dilutions of the antibiotics and PLNC8 αβ were prepared together in microtiter plates, either alone or in combination. The MIC values were determined visually and spectroscopically, and the fractional inhibitory concentration (ΣFIC) was calculated by the equation (MIC of PLNC8 αβ in combination/MIC of PLNC8 αβ alone) + (MIC of antibiotic in combination/MIC of antibiotic alone). […]

CN[C@H](CC(C)C)C(=O)N[C@H]1C(=O)N[C@@H](CC(N)=O)C(=O)N[C@H]2C(=O)N[C@H]3C(=O)N[C@H](C(=O)N[C@H](C(=O)O)c4cc(O)cc(O)c4-c4cc3ccc4O)[C@H](O)c3ccc(c(Cl)c3)Oc3cc2cc(c3O[C@@H]2O[C@H](CO)[C@@H](O)[C@H](O)[C@H]2O[C@H]2C[C@](C)(N)[C@H](O)[C@H](C)O2)Oc2ccc(cc2Cl)[C@H]1O [Vancomycin, vancomycin]
MIC: 1.5 µg/mL

From paper PMC7046733, “Plantaricin NC8 αβ exerts potent antimicrobial activity against Staphylococcus spp. and enhances the effects of antibiotics” (Scientific Reports, 2020)
